Reference: the supplement of paper PMC4604168 (melanoma cell lines)
This is one part of the list. Single values are uncertain, as repeats are few or missing.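 The apoptosis fraction was the count of cleaved-PARP antibody-stained nuclei relative to all DNA-stained nuclei, imaged in 1,536-well plates. Screening doses were set so most cells survived, and baseline and induced cleaved-PARP levels vary greatly across cell lines.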

Key:
Test in all cases: cleaved PARP positive nuclei fraction relative to DMSO control; melanoma cells; higher = more apoptosis
Settings in all cases: library dose: low library concentration; 72 h
[1] = system: CBRC034 (line from a melanoma biopsy)
[2] = system: COLO792
[3] = system: COLO800
[4] = system: COLO829
[5] = system: G361
[6] = system: IPC-298
[7] = system: IST-MEL1
[8] = system: LOXIMVI
[9] = system: MEL-HO
[10] = system: LB2518-MEL

Structure (SMILES)	cleaved PARP positive nuclei fraction [1]	cleaved PARP positive nuclei fraction [2]	cleaved PARP positive nuclei fraction [3]	cleaved PARP positive nuclei fraction [4]	cleaved PARP positive nuclei fraction [5]	cleaved PARP positive nuclei fraction [6]	cleaved PARP positive nuclei fraction [7]	cleaved PARP positive nuclei fraction [8]	cleaved PARP positive nuclei fraction [9]	cleaved PARP positive nuclei fraction [10]
C[As](C)SC[C@H](NC(=O)CC[C@H](N)C(=O)O)C(=O)NCC(=O)O [Darinaparsin] + COc1cc(N2CCC(N3CCN(C)CC3)CC2)ccc1Nc1ncc(Cl)c(Nc2ccccc2S(=O)(=O)C(C)C)n1 [NVP-TAE684] (first compound 0.4 µM, partner dose 0.08 µM)	103%	112%	104%	49.3%	24%	84.8%	127%	138%	–	–
O=c1[nH]nc(Sc2ncc([N+](=O)[O-])s2)n1-c1ccc2c(c1)OCCO2 + C[C@]12O[C@H](C[C@]1(O)CO)n1c3ccccc3c3c4c(c5c6ccccc6n2c5c31)CNC4=O [Lestaurtinib] (first compound 0.2 µM, partner dose 0.004 µM)	172%	37.1%	99%	47.8%	72.7%	167%	61.9%	143%	84.9%	–
Cn1cc(C2=C(c3cn(C4CCN(Cc5ccccn5)CC4)c4ccccc34)C(=O)NC2=O)c2ccccc21 [Enzastaurin] + C=C(c1ccc(C(=O)O)cc1)c1cc2c(cc1C)C(C)(C)CCC2(C)C [Bexarotene] (first compound 0.8 µM, partner dose 2 µM)	83.4%	86.3%	59%	117%	241%	86.9%	124%	19%	35.5%	99.8%
COc1cc([C@@H]2c3cc4c(cc3[C@@H](O[C@@H]3O[C@@H]5CO[C@@H](C)O[C@H]5[C@H](O)[C@H]3O)[C@H]3COC(=O)[C@H]23)OCO4)cc(OC)c1O [etoposide] + C[As](C)SC[C@H](NC(=O)CC[C@H](N)C(=O)O)C(=O)NCC(=O)O [Darinaparsin] (first compound 0.02 µM, partner dose 0.4 µM)	72.5%	45.7%	106%	–	103%	125%	116%	50.1%	88.4%	49.5%
Cc1cc(SCc2sc(-c3ccc(C(F)(F)F)c(F)c3)nc2C)ccc1OCC(=O)O + COc1cc2ncnc(Nc3ccc(Oc4ccccc4)cc3)c2cc1OC [SrcI1] (first compound 2 µM, partner dose 2 µM)	93.8%	105%	147%	46.7%	134%	68.7%	138%	67.9%	–	–
C[C@]12O[C@H](C[C@]1(O)CO)n1c3ccccc3c3c4c(c5c6ccccc6n2c5c31)CNC4=O [Lestaurtinib] + COc1ccc(-c2ccc3c(N4CCOCC4)nc(N4C[C@@H](C)O[C@@H](C)C4)nc3n2)cc1CO [KU0063794] (first compound 0.004 µM, partner dose 0.02 µM)	–	79.3%	79.9%	156%	79.1%	103%	99%	97.6%	–	105%
O=C(Nc1cc(C(F)(F)F)cc(C(F)(F)F)c1)c1cc(Cl)ccc1O + C/C(O)=C(\C#N)C(=O)Nc1cc(Br)ccc1Br [LFM-A13] (first compound 0.016 µM, partner dose 2 µM)	–	55.5%	87.5%	103%	92.7%	91.3%	103%	69%	–	63.9%
O=c1[nH]nc(Sc2ncc([N+](=O)[O-])s2)n1-c1ccc2c(c1)OCCO2 + C/C(O)=C(\C#N)C(=O)Nc1cc(Br)ccc1Br [LFM-A13] (first compound 0.2 µM, partner dose 2 µM)	–	117%	64.4%	139%	93.1%	110%	243%	72.5%	–	65.8%
C[As](C)SC[C@H](NC(=O)CC[C@H](N)C(=O)O)C(=O)NCC(=O)O [Darinaparsin] + COc1ccc(-c2ccc3c(N4CCOCC4)nc(N4C[C@@H](C)O[C@@H](C)C4)nc3n2)cc1CO [KU0063794] (first compound 0.4 µM, partner dose 0.02 µM)	89.9%	116%	99.2%	73.2%	173%	148%	161%	64.6%	–	–
CC(=O)O[C@@]12CO[C@@H]1C[C@H](O)[C@@]1(C)C(=O)[C@H](O)C3=C(C)[C@@H](OC(=O)[C@H](O)[C@@H](NC(=O)OC(C)(C)C)c4ccccc4)C[C@@](O)([C@@H](OC(=O)c4ccccc4)[C@H]21)C3(C)C [Docetaxel] + C[As](C)SC[C@H](NC(=O)CC[C@H](N)C(=O)O)C(=O)NCC(=O)O [Darinaparsin] (first compound 0.0001 µM, partner dose 0.4 µM)	75%	553%	284%	289%	669%	264%	213%	121%	146%	–
C[C@]12O[C@H](C[C@]1(O)CO)n1c3ccccc3c3c4c(c5c6ccccc6n2c5c31)CNC4=O [Lestaurtinib] + Cc1nc(Nc2ncc(C(=O)Nc3c(C)cccc3Cl)s2)cc(N2CCN(CCO)CC2)n1 [dasatanib] (first compound 0.004 µM, partner dose 0.004 µM)	125%	141%	100%	90.1%	97.4%	246%	58%	131%	41.8%	–
N.N.[Cl][Pt][Cl] [cisplatin] + COc1ccc(Cl)c(Nc2nc3ccccc3nc2NS(=O)(=O)c2cccc(NC(=O)C(C)(C)N)c2)c1 [XL147] (first compound 1.6 µM, partner dose 0.8 µM)	58.5%	57.3%	104%	135%	194%	82.8%	50.5%	76.8%	67.8%	105%
N.N.[Cl][Pt][Cl] [cisplatin] + C=CCNC1=C2C[C@@H](C)C[C@H](OC)[C@H](O)[C@@H](C)/C=C(\C)[C@H](OC(N)=O)[C@@H](OC)/C=C\C=C(/C)C(=O)NC(=CC1=O)C2=O [Tanespimycin] (first compound 1.6 µM, partner dose 0.002 µM)	44.1%	123%	154%	92.8%	206%	41.3%	190%	121%	86.6%	409%
C=C(c1ccc(C(=O)O)cc1)c1cc2c(cc1C)C(C)(C)CCC2(C)C [Bexarotene] + C[As](C)SC[C@H](NC(=O)CC[C@H](N)C(=O)O)C(=O)NCC(=O)O [Darinaparsin] (first compound 2 µM, partner dose 0.4 µM)	31.8%	94.2%	87.9%	127%	78.7%	117%	72.3%	93.4%	39.2%	48.6%
C=CCn1c(=O)c2cnc(Nc3ccc(N4CCN(C)CC4)cc3)nc2n1-c1cccc(C(C)(C)O)n1 + C/C(O)=C(\C#N)C(=O)Nc1cc(Br)ccc1Br [LFM-A13] (first compound 0.02 µM, partner dose 2 µM)	97.7%	98.5%	108%	75.6%	132%	166%	40.3%	107%	–	–
O=C(CCCCCCC(=O)Nc1ccccc1)NO [vorinostat] + O=C(Oc1ccc([N+](=O)[O-])cc1)N1CCC(C(O)(c2ccc3c(c2)OCO3)c2ccc3c(c2)OCO3)CC1 [JZL184] (first compound 0.08 µM, partner dose 1 µM)	98.2%	126%	200%	40.6%	62%	127%	262%	35.7%	–	–
C[As](C)SC[C@H](NC(=O)CC[C@H](N)C(=O)O)C(=O)NCC(=O)O [Darinaparsin] + Cn1cc(/C=C2\C(=O)Nc3cccnc32)c2ccccc21 [GW441756] (first compound 0.4 µM, partner dose 0.4 µM)	84.7%	83.3%	74.8%	108%	130%	222%	43.3%	31.4%	–	–
COc1ccc(COc2ccc(Cc3cnc(N)nc3N)cc2OC)cc1 + O=C(Oc1ccc([N+](=O)[O-])cc1)N1CCC(C(O)(c2ccc3c(c2)OCO3)c2ccc3c(c2)OCO3)CC1 [JZL184] (first compound 1 µM, partner dose 1 µM)	464%	124%	182%	97.8%	114%	42.3%	84.8%	60.2%	–	–
C[C@]12O[C@H](C[C@]1(O)CO)n1c3ccccc3c3c4c(c5c6ccccc6n2c5c31)CNC4=O [Lestaurtinib] + Cn1c(Nc2ccc(C(F)(F)F)cc2)nc2cc(Oc3ccnc(-c4ncc(C(F)(F)F)[nH]4)c3)ccc21 [CHIR265] (first compound 0.004 µM, partner dose 0.08 µM)	191%	187%	93.4%	102%	80.3%	124%	59.8%	137%	79.8%	–
N.N.[Cl][Pt][Cl] [cisplatin] + Cc1cc(SCc2sc(-c3ccc(C(F)(F)F)c(F)c3)nc2C)ccc1OCC(=O)O [GW0742] (first compound 1.6 µM, partner dose 2 µM)	–	128%	48.1%	82.2%	138%	64.4%	99.3%	60.9%	–	116%
Cn1c(=O)n(-c2ccc(C(C)(C)C#N)cc2)c2c3cc(-c4cnc5ccccc5c4)ccc3ncc21 + N.N.[Cl][Pt][Cl] [cisplatin] (first compound 0.004 µM, partner dose 1.6 µM)	97%	163%	109%	191%	94.9%	84.8%	72.6%	115%	155%	–
C[C@]12O[C@H](C[C@]1(O)CO)n1c3ccccc3c3c4c(c5c6ccccc6n2c5c31)CNC4=O [Lestaurtinib] + C[As](C)SC[C@H](NC(=O)CC[C@H](N)C(=O)O)C(=O)NCC(=O)O [Darinaparsin] (first compound 0.004 µM, partner dose 0.4 µM)	40.5%	90.1%	141%	105%	60.2%	335%	42.8%	196%	141%	–
C[C@@H]1CCN(C(=O)CC#N)C[C@@H]1N(C)c1ncnc2[nH]ccc12 + O=C(Oc1ccc([N+](=O)[O-])cc1)N1CCC(C(O)(c2ccc3c(c2)OCO3)c2ccc3c(c2)OCO3)CC1 [JZL184] (first compound 1 µM, partner dose 1 µM)	85.6%	42.7%	73.7%	63.9%	226%	78.8%	243%	69.4%	–	–

Some of the entries above in a different format.
Structure (SMILES) | cleaved PARP positive nuclei fraction [1] | cleaved PARP positive nuclei fraction [2] | cleaved PARP positive nuclei fraction [3] | cleaved PARP positive nuclei fraction [4] | cleaved PARP positive nuclei fraction [5] | cleaved PARP positive nuclei fraction [6] | cleaved PARP positive nuclei fraction [7] | cleaved PARP positive nuclei fraction [8] | cleaved PARP positive nuclei fraction [9] | cleaved PARP positive nuclei fraction [10]
C=CCn1c(=O)c2cnc(Nc3ccc(N4CCN(C)CC4)cc3)nc2n1-c1cccc(C(C)(C)O)n1 + C/C(O)=C(\C#N)C(=O)Nc1cc(Br)ccc1Br [LFM-A13] (first compound 0.02 µM, partner dose 2 µM) | 97.7% | 98.5% | 108% | 75.6% | 132% | 166% | 40.3% | 107% | – | –
N.N.[Cl][Pt][Cl] [cisplatin] + Cc1cc(SCc2sc(-c3ccc(C(F)(F)F)c(F)c3)nc2C)ccc1OCC(=O)O [GW0742] (first compound 1.6 µM, partner dose 2 µM) | – | 128% | 48.1% | 82.2% | 138% | 64.4% | 99.3% | 60.9% | – | 116%
